Experimental data published in PubChem BioAssay AID504834 (National Center for Advancing Translational Sciences (NCATS), 2011).
About 22,000 (6.9%) of roughly 320,000 compounds were called active. Inconclusive means that the source gave no clear call. Such entries were picked first, then a sample of the others. Calls follow the shape of the dose curve; as a rule, active = well fitted inhibition curve with a large enough effect; inconclusive = small, poorly fitted or top-dose-only effect, or another doubt; inactive = no such curve, though single readings can be large or run the other way. Potencies beside an inconclusive call are fits to weak or partial responses and may not hold up.

Test: Primary qHTS for delayed death inhibitors of the malarial parasite plastid, 96 hour incubation
Conditions: P. falciparum luciferase reporter growth; series mostly up to 28.7 µM; activity change, negative = inhibition: at the top concentration
In short: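 P. falciparum expressing integrated firefly luciferase grown in erythrocytes (2% hematocrit, 0.05% parasitemia final) with compounds for 96 hours at 37 C, 5% CO2. Growth inhibition read as loss of luminescence after adding luciferase detection reagent.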
% is scaled to controls: 0 for no effect and ±100 for the full control effect; potency is read from the fitted curve at half-maximal effect.

Q: With `O=C(CC1C(=O)NCCN1Cc1c(F)cccc1Cl)NCCCn1cccn1` (centres undefined) as the compound, how does the “activity change, negative = inhibition” value read?
A: inactive: 2.76%

Q: Which Potency does the source give for `O=C(COc1ccc(F)cc1Cl)Nc1ccc(N2CCOCC2)cc1N1CCOCC1` here?
A: inconclusive: 10.4 µM [inhibitor, single point]

Q: With `CCCP(=O)(CC(=O)N(CC)CC)c1ccccc1` (centres undefined) as the compound, how does the Potency read?
A: inconclusive: 14.7 µM [inhibitor, partial curve, poor fit]

Q: Which Potency does the source give for `COCCn1c(-c2ccc(Br)cc2)csc1=Nc1cccnc1` here?
A: inconclusive: 5.86 µM [inhibitor, partial curve, poor fit]

Q: Which “activity change, negative = inhibition” value does the source give for `Cc1ccc(-c2cnc(-c3ccccc3C(=O)O)o2)cc1` here?
A: inactive: 41.8%

Q: For `CCOC(=O)c1sc2nc(C)nc(NCc3cccnc3)c2c1C`, which Potency is on record?
A: inconclusive: 18.5 µM [inhibitor, single point]

Q: For `CC(=O)NC(Cc1cc(C)ccc1C)C(=O)N1CCN(C(=O)c2ccc([N+](=O)[O-])cc2)CC1` (centres undefined), which Potency is on record?
A: inconclusive: 10.4 µM [inhibitor, partial curve]

Q: With `COc1cc(OC)cc(-c2sc3ccc(OC)cc3c2C#CCCO)c1` as the compound, how does the Potency read?
A: inconclusive: 2.94 µM [inhibitor, single point]

Q: With `O=C(Oc1cccnc1)c1ccc([N+](=O)[O-])cc1Cl` as the compound, how does the Potency read?
A: inconclusive: 16.5 µM [inhibitor, single point]

Q: For `CCOC(=O)N1CCC(NC(=O)CS(=O)Cc2nc(-c3ccc(C)cc3)oc2C)CC1` (centres undefined), which Potency is on record?
A: inconclusive: 18.5 µM [inhibitor, single point]

Q: Which Potency does the source give for `CC(=O)Nc1ccc(S(=O)(=O)Nc2cccc(-c3cn4c(n3)SCC4)c2)cc1` here?
A: inconclusive: 1.85 µM [inhibitor, full curve, poor fit]

Q: With `CCN(C)c1ccc(/C=N\n2nnnc2N)cc1` as the compound, how does the Potency read?
A: active: 2.62 µM

Q: With `N#CCC1c2ccccc2CCN1C(=O)Nc1cccc(C(F)(F)F)c1` (centres undefined) as the compound, how does the Potency read?
A: inconclusive: 0.037 µM [inhibitor, partial curve, poor fit]

Q: With `CC(=O)Nc1cccc(NC(=S)Nc2ccc(F)c(Cl)c2)c1` as the compound, how does the Potency read?
A: inconclusive: 11.7 µM [inhibitor, partial curve, poor fit]

Q: Which Potency does the source give for `Cc1ccc(NC(=O)Cc2cc(C(=O)O)c3ccccc3n2)c(C)c1` here?
A: inconclusive: 0.0041 µM [inhibitor, full curve, poor fit]

Q: Which Potency does the source give for `COc1cccc(NC2=C(C#N)C(=O)NC(c3cccc(OC)c3O)S2)c1` (centres undefined) here?
A: inconclusive: 13.1 µM [inhibitor, single point]

Q: Which Potency does the source give for `COc1ccc(OC)c(CN2CCN(CCc3ccccc3)C(CCO)C2)c1` (centres undefined) here?
A: active: 13.1 µM

Q: Which “activity change, negative = inhibition” value does the source give for `c1cc(CSc2nnc(-c3ccc4c(c3)OCO4)o2)ccn1` here?
A: inactive: -7.78%

Q: With `Cc1ccoc1C(=O)N1CCCC(CCC(=O)N2CCN(c3ccccn3)CC2)C1` (centres undefined) as the compound, how does the “activity change, negative = inhibition” value read?
A: inactive: -8.29%
